{
  "source": "PubChem BioAssay AID504444",
  "about": "(National Center for Advancing Translational Sciences (NCATS), 2011)",
  "note": "Screen size: about 360,000 compounds; about 7,500 (2.1%) were called active. Inconclusive results, whose numbers are uncertain, are shown with a selection of clear calls. Calls come from the whole dose curve; as a rule, active = well fitted inhibition curve with a large enough effect; inconclusive = small, poorly fitted or top-dose-only effect, or effect the other way; inactive = flat fitted curve, though single readings scatter. Potencies beside an inconclusive call are fits to weak or partial responses and may not hold up. Potency is the fitted concentration of half-maximal effect.",
  "data": [
    {"test": "Nrf2 qHTS screen for inhibitors; note: nearly all actives have a fitted effect of over 60% in size", "details": "A549 ARE-Fluc reporter, luciferase luminescence, 18-24 h; series mostly up to 46 µM", "how_it_was_run": "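Reporter: ARE-Fluc in A549. Exposure: 18-24 h, 37 °C, 5% CO2, 5% FBS OPTI-MEM. Readouts: fluorescent cytotoxicity (CellTiter-Fluor), then luminescent Nrf2 signal after BugLite.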", "values": [
      {"molecule": "CCn1c(=O)cc(OCC(=O)N(C)c2ccccc2F)c2ccccc21", "Potency": "inconclusive: 23.1 µM [falling, partial curve, poor fit]"},
      {"molecule": "O=C(OCC1CCCO1)c1ccc2c(c1)N(Cc1c(F)cccc1Cl)C(=O)c1ccccc1S2(=O)=O", "note": "(stereo unspecified)", "Potency": "inactive"},
      {"molecule": "O=C(OCC#CCSc1nnc(-c2cccc3ccccc23)o1)c1sc2ccccc2c1Cl", "Potency": "inactive"},
      {"molecule": "COc1ccc(C)cc1NC(=O)c1sc2ncnc(N3CCN(c4ccccn4)CC3)c2c1C", "Potency": "inactive"},
      {"molecule": "c1ccc2c(-c3csc(-c4ccncc4)n3)c[nH]c2c1", "Potency": "inconclusive: 8.2 µM [activator, partial curve]"},
      {"molecule": "COc1ccc2[nH]c(N=Nc3ccccc3C)c(O)c2c1", "Potency": "inconclusive: 16.4 µM [activator, single point]"},
      {"molecule": "Cc1cccc(/C=N/NC(=O)c2ccc(NC(=O)c3cccc(Cl)c3)cc2)n1", "Potency": "inconclusive: 29.1 µM [falling, single point]"},
      {"molecule": "COc1ccc(C(=O)OCC(=O)Nc2cccc(S(=O)(=O)NC3=NCCCCC3)c2)cc1[N+](=O)[O-]", "Potency": "inactive"},
      {"molecule": "CC1(C)O[C@@H]2[C@H](O1)[C@@H](COS(=O)(=O)O)O[C@H]2n1ccc(=O)[nH]c1=O", "Potency": "inconclusive: 6.51 µM [activator, single point]"},
      {"molecule": "CCOC(=O)c1sc(=NC(=O)c2ccc(C)cc2)n(C)c1C", "Potency": "inconclusive: 0.58 µM [activator, full curve, poor fit]"},
      {"molecule": "Cc1ccc(C(=O)c2cn(Cc3ccccc3)c3cc4c(cc3c2=O)OCCO4)cc1", "Potency": "inconclusive: 1.64 µM [activator, partial curve]"},
      {"molecule": "CCc1cccc(NC(=O)CSc2nccn2C)c1", "Potency": "inconclusive: 7.31 µM [activator, partial curve]"},
      {"molecule": "NC(=O)C1CCN(c2nc(C3CC3)nc3c2nnn3Cc2ccccc2Cl)CC1", "Potency": "inconclusive: 16.4 µM [falling, partial curve]"},
      {"molecule": "Cc1nn(-c2cc(N3CCOCC3)ccc2[N+](=O)[O-])c(=O)c2ccccc12", "Potency": "inconclusive: 14.6 µM [activator, partial curve, poor fit]"},
      {"molecule": "COc1cc(/C=N/n2cnnc2-n2nc(C)cc2C)cc([N+](=O)[O-])c1O", "Potency": "inactive"},
      {"molecule": "O=C1CCN(S(=O)(=O)c2ccccc2)CCN1CCOCc1ccc(C(F)(F)F)cc1", "Potency": "inconclusive: 23.1 µM [falling, partial curve, poor fit]"},
      {"molecule": "Cc1ccc(C(=O)Nc2cccc(C(F)(F)F)c2)cc1Nc1cnccn1", "Potency": "inconclusive: 20.6 µM [falling, partial curve, poor fit]"},
      {"molecule": "O=[S+]([O-])(c1ccc2c(c1)OCCO2)N1CCN([S+](=O)([O-])c2c(F)cc(F)cc2Br)CC1", "Potency": "inactive"},
      {"molecule": "O=C(Nc1ccc2ccccc2c1)c1cn(-c2ccccc2)nc1-c1cccs1", "Potency": "inconclusive: 0.0058 µM [falling, full curve, poor fit]"},
      {"molecule": "O=C(CCc1ccccc1)N1CCN(c2ccc(Cl)cc2)CC1", "Potency": "inconclusive: 29.1 µM [falling, single point]"},
      {"molecule": "Cc1cc(C)c(S(=O)(=O)N(C)CC(=O)NCc2cccnc2)c(C)c1", "Potency": "inconclusive: 3.66 µM [falling, single point]"},
      {"molecule": "Cc1cc(SCC(=O)c2cccs2)nc2ccccc12", "Potency": "inconclusive: 25.9 µM [activator, partial curve, poor fit]"},
      {"molecule": "CCOc1ccc(C(=O)NC(C)(C)CC)cc1", "Potency": "inconclusive: 23.1 µM [activator, single point]"},
      {"molecule": "O=C(N/N=C/C(Br)=C\\c1ccccc1)c1n[nH]c2c1CCC2", "Potency": "inconclusive: 3.26 µM [activator, full curve]"},
      {"molecule": "Cc1cc(C(=O)CSc2ccc(Cl)cc2)cc(C)c1OC(=S)N(C)C", "Potency": "inconclusive: 9.2 µM [activator, partial curve, poor fit]"},
      {"molecule": "COc1ccc(CNC(=O)CC23CC4CC(CC(C4)C2)C3)cc1", "Potency": "inconclusive: 23.1 µM [activator, single point]"},
      {"molecule": "NCCCCc1ccc2ccc3cccc4ccc1c2c34", "Potency": "inconclusive: 23.1 µM [activator, partial curve, poor fit]"},
      {"molecule": "CCCC(=O)N1CCN(c2ccc(NC(=O)c3sc4ccccc4c3Cl)cc2)CC1", "Potency": "inconclusive: 11.6 µM [falling, partial curve, poor fit]"},
      {"molecule": "COc1ccc(NCc2cccn2-c2nnc(N3CCC(C)CC3)s2)c(OC)c1", "Potency": "inconclusive: 6.51 µM [falling, single point]"},
      {"molecule": "NNc1nc2ccccc2c(=O)n1Cc1ccccc1", "Potency": "inconclusive: 29.1 µM [activator, partial curve, poor fit]"},
      {"molecule": "CCc1nc(SCc2nc3ccccc3[nH]2)c2oc3ccccc3c2n1", "Potency": "inconclusive: 29.1 µM [falling, single point]"},
      {"molecule": "O=C(NCC1CCCO1)c1cc(S(=O)(=O)Nc2ccc(Br)cc2)ccc1Cl", "note": "(stereo unspecified)", "Potency": "inconclusive: 29.1 µM [falling, single point]"},
      {"molecule": "O=C(CSc1nc2c(c(=O)[nH]1)CCC2)Nc1cc(C(F)(F)F)ccc1Cl", "Potency": "inconclusive: 29.1 µM [falling, single point]"},
      {"molecule": "CCCCCOc1ccccc1Cn1c(=O)oc2ccc(C)cc21", "Potency": "inconclusive: 1.3 µM [falling, partial curve, poor fit]"},
      {"molecule": "CC(=O)NCC(=O)N1CCC(n2nccc2NC(=O)CCCc2ccccc2)CC1", "Potency": "inconclusive: 20.6 µM [activator, single point]"},
      {"molecule": "COc1ccc2[nH]c(-c3ccccc3)cc2c1", "Potency": "inconclusive: 1.46 µM [activator, full curve]"},
      {"molecule": "CCOCCCN(C)C1CCN(C(=O)c2oc3ccccc3c2NC(=O)Cc2ccc(F)cc2)CC1", "Potency": "inconclusive: 18.4 µM [activator, single point]"},
      {"molecule": "COc1ccc(-n2sc3c(c2=S)-c2cc(OC)ccc2NC3(C)C)cc1", "Potency": "active: 20.6 µM"},
      {"molecule": "Cc1cccc2nc(-c3ccco3)c(Nc3ccccc3)n12", "Potency": "inconclusive: 23.1 µM [falling, single point]"},
      {"molecule": "CCn1cc(CNC(=O)c2ccc(OC3CCN(Cc4ccccn4)CC3)cc2)cn1", "Potency": "active: 11.6 µM"},
      {"molecule": "Cc1cc(C)nc(SCc2ccc(C(=O)NNC(=O)Nc3cccc(Cl)c3)cc2)n1", "Potency": "active: 9.2 µM"},
      {"molecule": "CCC1CCCCN1CCCNC(=O)Cn1ncc2c(C)n(Cc3ccccc3Cl)c(C)c2c1=O", "note": "(stereo unspecified)", "Potency": "inactive"},
      {"molecule": "C=CCn1c(=NC(=O)C2COc3ccccc3O2)sc2cccc(OC)c21", "note": "(stereo unspecified)", "Potency": "inconclusive: 32.6 µM [falling, single point]"},
      {"molecule": "CCCCSc1ccc2nc(-c3ccc(C#N)cc3)cn2c1", "Potency": "inconclusive: 2.59 µM [activator, partial curve, poor fit]"},
      {"molecule": "Cc1csc(N2CCCC2c2nc3cc(C(F)(F)F)ccc3n2CCOCCO)n1", "note": "(stereo unspecified)", "Potency": "inconclusive: 14.6 µM [activator, partial curve, poor fit]"},
      {"molecule": "OCCN1CCN(C(=S)c2ccc(-c3ccccc3)cc2)CC1", "Potency": "inconclusive: 16.4 µM [falling, partial curve, poor fit]"},
      {"molecule": "O=C(COC(=O)C1=NN(c2ccccc2)C(=O)CC1)Nc1nc(-c2ccc(F)cc2)cs1", "Potency": "inconclusive: 8.2 µM [activator, partial curve]"},
      {"molecule": "O=C(Nc1ccc(F)c(Cl)c1)c1nsc(Cl)c1Cl", "Potency": "inactive"},
      {"molecule": "O=C(NCCCN1CCOCC1)c1ccc2ccccc2c1", "Potency": "inconclusive: 9.2 µM [activator, partial curve]"},
      {"molecule": "CCc1cc2c(=O)c(-c3ccc4c(c3)OCCO4)coc2cc1OS(C)(=O)=O", "Potency": "inconclusive: 2.31 µM [activator, partial curve]"},
      {"molecule": "O=C(N/N=C/C=C/c1ccccc1)C1CC1c1ccccc1", "note": "(stereo unspecified)", "Potency": "inconclusive: 2.59 µM [falling, partial curve]"},
      {"molecule": "CCCCN(CCCNC(=O)c1c(C)cc(=O)oc1C)c1ccccc1", "Potency": "inconclusive: 29.1 µM [falling, partial curve, poor fit]"},
      {"molecule": "CN(C)S(=O)(=O)c1ccc(Cl)c(C(=O)Nc2ccc(S(=O)(=O)N3CCOCC3)cc2)c1", "Potency": "inactive"},
      {"molecule": "CCOC(=O)c1ccc(-c2ccc(CO)o2)cc1", "Potency": "inconclusive: 23.1 µM [activator, partial curve]"},
      {"molecule": "CC(=O)Nc1ccc(C(=S)NCC2(N(C)C)CCCCC2)cc1", "Potency": "inconclusive: 29.1 µM [activator, single point]"},
      {"molecule": "COCCNC(=O)c1ccc(CN2CCC(Cc3ccccc3)CC2)cc1", "Potency": "inactive"},
      {"molecule": "COc1cccc(/C=C/C(=O)OCC(=O)Nc2cc(C(F)(F)F)ccc2Cl)c1", "Potency": "inconclusive: 29.1 µM [falling, single point]"},
      {"molecule": "Cc1ccn2c(Nc3ccc(C(C)C)cc3)c(-c3ccsc3)nc2c1", "Potency": "inactive"},
      {"molecule": "CC(C)OCCCNC(=O)c1c2c(nc3ccccc13)C(=O)N(C1CCCCC1)C2", "Potency": "inactive"},
      {"molecule": "O=C(COc1ccccc1Cl)Nc1ccc2c(c1)OCCO2", "Potency": "inconclusive: 7.31 µM [activator, partial curve]"},
      {"molecule": "CC(C)N(C(=O)Cn1cc(S(=O)(=O)CC(=O)Nc2ccccc2)c2ccccc21)C(C)C", "Potency": "inactive"},
      {"molecule": "COc1ccc(N2CCN(CCCNC(=O)C3CCC(CNc4nc(=S)[nH]c5ccccc45)CC3)CC2)cc1", "note": "(stereo unspecified)", "Potency": "active: 6.51 µM"},
      {"molecule": "CC(C)N(C(=O)CSc1nn2c(=O)c(C(C)(C)C)nnc2s1)c1ccccc1", "Potency": "inconclusive: 2.31 µM [activator, partial curve]"},
      {"molecule": "Cc1cccc(-n2cnc(C(=O)N3CCN(C)CC3)c2)n1", "Potency": "inconclusive: 9.2 µM [activator, partial curve]"},
      {"molecule": "O=C(CCN1C(=O)/C(=C/c2ccc(Cl)cc2)SC1=S)Nc1cccc(C(=O)O)c1", "Potency": "inactive"},
      {"molecule": "COc1ccc(CCNC(=O)COc2ccc(N(C)S(=O)(=O)c3ccc(Cl)cc3)cc2)cc1", "Potency": "active: 3.66 µM"}
    ]}
  ]
}
